# Experimental data published in the supplement of paper PMC8728848.
# The list shows a part of the results.
# Assays:
# Assay in all cases: glycan array binding signal (z-score within array); higher = stronger binding
# Details in all cases: glycan notation: IUPAC condensed, linker removed
# [1] = target: Fuc(a1-2)[Gal(a1-4)]Gal(b1-4)GlcNAc
# In short: (§1)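 The Consortium for Functional Glycomics database supplied 3228 glycan arrays, of which those lacking an available protein sequence were dropped. The binding signal, a within-array Z-score, was averaged across arrays of the same protein sequence and across linkers. Negative scores can be read as non-binding.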
# [2] = target: Fuc(a1-2)[GalNAc(a1-3)]Gal
# In short: as §1
# [3] = target: Fuc(a1-2)[GalNAc(a1-3)]Gal(b1-3)GalNAc(a1-3)[Fuc(a1-2)]Gal(b1-4)GlcNAc
# In short: as §1
# [4] = target: Fuc(a1-2)[GalNAc(a1-3)]Gal(b1-3)GlcNAc
# In short: as §1
# [5] = target: Fuc(a1-2)[GalNAc(a1-3)]Gal(b1-3)GlcNAc(b1-2)Man(a1-3)[Fuc(a1-2)[GalNAc(a1-3)]Gal(b1-3)GlcNAc(b1-2)Man(a1-6)]Man(b1-4)GlcNAc(b1-4)GlcNAc
# In short: as §1
# [6] = target: Fuc(a1-2)[GalNAc(a1-3)]Gal(b1-4)Glc
# In short: as §1
# [7] = target: Fuc(a1-2)[GalNAc(a1-3)]Gal(b1-4)GlcNAc
# In short: as §1
# [8] = target: Fuc(a1-2)[GalNAc(a1-3)]Gal(b1-4)GlcNAc(b1-2)Man(a1-3)[Fuc(a1-2)[GalNAc(a1-3)]Gal(b1-4)GlcNAc(b1-2)Man(a1-6)]Man(b1-4)GlcNAc(b1-4)GlcNAc
# In short: as §1
# [9] = target: Fuc(a1-2)[GalNAc(a1-3)]Gal(b1-4)GlcNAc(b1-3)Gal(b1-4)GlcNAc
# In short: as §1
# [10] = target: Fuc(a1-2)[GalNAc(a1-3)]Gal(b1-4)GlcNAc(b1-3)Gal(b1-4)GlcNAc(b1-3)Gal(b1-4)GlcNAc
# In short: as §1
# [11] = target: Fuc(a1-2)[GalNAc(a1-3)]Gal(b1-4)[Fuc(a1-3)]GlcNAc
# In short: as §1
# [12] = target: Fuc(a1-2)[GalNAc(a1-4)]Gal(b1-4)GlcNAc
# In short: as §1
# [13] = target: Fuc(a1-2)[GalNAc(b1-3)]Gal
# In short: as §1
# Fuc(a1-3)GlcNAc = target: Fuc(a1-3)GlcNAc
# In short: as §1
# [14] = target: Fuc(a1-3)[Gal(b1-4)]Glc6S
# In short: as §1
# [15] = target: Fuc(a1-3)[Gal(b1-4)]GlcNAc
# In short: as §1
# [16] = target: Fuc(a1-3)[Gal(b1-4)]GlcNAc(b1-2)Man(a1-3)[Fuc(a1-3)[Gal(b1-4)]GlcNAc(b1-2)Man(a1-6)]Man(b1-4)GlcNAc(b1-4)GlcNAc
# In short: as §1
# [17] = target: Fuc(a1-3)[Gal(b1-4)]GlcNAc(b1-3)Gal(b1-3)[Fuc(a1-4)]GlcNAc
# In short: as §1
# [18] = target: Fuc(a1-3)[Gal(b1-4)]GlcNAc(b1-3)GalNAc
# In short: as §1
# [19] = target: Fuc(a1-3)[Gal(b1-4)]GlcNAc(b1-4)Gal(b1-4)[Fuc(a1-3)]GlcNAc
# In short: as §1
# [20] = target: Fuc(a1-3)[Gal(b1-4)]GlcNAc(b1-4)Gal(b1-4)[Fuc(a1-3)]GlcNAc(b1-4)Gal(b1-4)[Fuc(a1-3)]GlcNAc
# In short: as §1
# [21] = target: Fuc(a1-3)[Gal(b1-4)]GlcNAc(b1-6)[Gal(b1-3)GlcNAc(b1-3)]Gal(b1-4)Glc
# In short: as §1
# [22] = target: Fuc(a1-3)[Gal(b1-4)]GlcNAc6S
# In short: as §1
# [23] = target: Fuc(a1-3)[Gal3S(b1-4)]GlcNAc
# In short: as §1
# [24] = target: Fuc(a1-3)[Gal3S(b1-4)]GlcNAc6S
# In short: as §1
# [25] = target: Fuc(a1-3)[GalNAc(b1-4)]GlcNAc
# In short: as §1
# Fuc(a1-4)GlcNAc = target: Fuc(a1-4)GlcNAc
# In short: as §1
# Fuc(b1-3)GlcNAc = target: Fuc(b1-3)GlcNAc
# In short: as §1
# Gal(a1-2)Gal = target: Gal(a1-2)Gal
# In short: as §1
# Gal(a1-3)Gal = target: Gal(a1-3)Gal
# In short: as §1
# Gal(a1-3)Gal(b1-3)GlcNAc = target: Gal(a1-3)Gal(b1-3)GlcNAc
# In short: as §1
# [26] = target: Gal(a1-3)Gal(b1-3)GlcNAc(b1-2)Man(a1-3)[Gal(a1-3)Gal(b1-3)GlcNAc(b1-2)Man(a1-6)]Man(b1-4)GlcNAc(b1-4)GlcNAc
# In short: as §1
# [27] = target: Gal(a1-3)Gal(b1-3)[Fuc(a1-4)]GlcNAc(b1-2)Man(a1-3)[Gal(a1-3)Gal(b1-3)[Fuc(a1-4)]GlcNAc(b1-2)Man(a1-6)]Man(b1-4)GlcNAc(b1-4)GlcNAc
# In short: as §1
# Gal(a1-3)Gal(b1-4)Glc = target: Gal(a1-3)Gal(b1-4)Glc
# In short: as §1
# Gal(a1-3)Gal(b1-4)GlcNAc = target: Gal(a1-3)Gal(b1-4)GlcNAc
# In short: as §1
# [28] = target: Gal(a1-3)Gal(b1-4)GlcNAc(b1-3)GalNAc
# In short: as §1
# [29] = target: Gal(a1-3)Gal(b1-4)[Fuc(a1-3)]GlcNAc
# In short: as §1
# [30] = target: Gal(a1-3)Gal(b1-4)[Fuc(a1-3)]GlcNAc(b1-2)Man(a1-3)[Gal(a1-3)Gal(b1-4)[Fuc(a1-3)]GlcNAc(b1-2)Man(a1-6)]Man(b1-4)GlcNAc(b1-4)GlcNAc
# In short: as §1
binder,measurement,setting,value
"PEB1 (Campylobacter jejuni), Q0P9X8 (protein) MVFRKSLLKLAVFALGACVAFSNANAAEGKLESIKSKGQLIVGVKNDVPHYALLDQATGEIKGFEVDVAKLLAKSILGDDKKIKLVAVNAKTRGPLLDNGSVDAVIATFTITPERKRIYNFSEPYYQDAIGLLVLKEKKYKSLADMKGANIGVAQAATTKKAIGEAAKKIGIDVKFSEFPDYPSIKAALDAKRVDAFSVDKSILLGYVDDKSEILPDSFEPQSYGIVTKKDDPAFAKYVDDFVKEHKNEIDALAKKWGL",glycan array binding signal (z-score),[1],-1.44
same,glycan array binding signal (z-score),[2],0.441
same,glycan array binding signal (z-score),[3],-1.22
same,glycan array binding signal (z-score),[4],0.489
same,glycan array binding signal (z-score),[5],0.517
same,glycan array binding signal (z-score),[6],-0.967
same,glycan array binding signal (z-score),[7],-0.117
same,glycan array binding signal (z-score),[8],1.37
same,glycan array binding signal (z-score),[9],0.63
same,glycan array binding signal (z-score),[10],-1.11
same,glycan array binding signal (z-score),[11],-0.141
same,glycan array binding signal (z-score),[12],-0.592
same,glycan array binding signal (z-score),[13],-0.799
same,glycan array binding signal (z-score),Fuc(a1-3)GlcNAc,-0.959
same,glycan array binding signal (z-score),[14],0.801
same,glycan array binding signal (z-score),[15],-0.112
same,glycan array binding signal (z-score),[16],-0.842
same,glycan array binding signal (z-score),[17],0.704
same,glycan array binding signal (z-score),[18],-0.283
same,glycan array binding signal (z-score),[19],0.229
same,glycan array binding signal (z-score),[20],-1.26
same,glycan array binding signal (z-score),[21],-0.056
same,glycan array binding signal (z-score),[22],-0.15
same,glycan array binding signal (z-score),[23],-0.081
same,glycan array binding signal (z-score),[24],0.282
same,glycan array binding signal (z-score),[25],-0.9
same,glycan array binding signal (z-score),Fuc(a1-4)GlcNAc,-0.227
same,glycan array binding signal (z-score),Fuc(b1-3)GlcNAc,-1.36
same,glycan array binding signal (z-score),Gal(a1-2)Gal,0.338
same,glycan array binding signal (z-score),Gal(a1-3)Gal,0.007
same,glycan array binding signal (z-score),Gal(a1-3)Gal(b1-3)GlcNAc,-0.812
same,glycan array binding signal (z-score),[26],2.15
same,glycan array binding signal (z-score),[27],3.87
same,glycan array binding signal (z-score),Gal(a1-3)Gal(b1-4)Glc,-0.309
same,glycan array binding signal (z-score),Gal(a1-3)Gal(b1-4)GlcNAc,-0.763
same,glycan array binding signal (z-score),[28],-0.427
same,glycan array binding signal (z-score),[29],0.359
same,glycan array binding signal (z-score),[30],0.215
